Earlier results in patent US20020164598A1, “Method for evaluating and applying an individual's genetic characteristics to determine response to cardiovascular medication therapy” (IHC Health Services, Inc., priority 2001, published 2002).
Where two headings read alike, the source gives them in different places. For at least one compound, name, drawing or mass did not settle the structure.

Test system: patients
Conditions: cited from earlier work

In the case of `CC[C@H](C)C(=O)O[C@H]1C[C@H](O)C=C2C=C[C@H](C)[C@H](CC[C@@H](O)C[C@@H](O)CC(=O)O)[C@H]21` [pravastatin], the lesion progression (individuals homozygous for the B2 allele) is given as “not” and the lesion progression (patients homozygous for the B1 allele) is given as “slowed”.
